Publication PMC12709185
No constants are given. Whether binding was seen depends on the method and setting. In cells and extracts the contact can be indirect. A result given as binding can be weak or reduced; the word gives no strength. For part of these data: Sequences can lack the tags named with a protein.

Amino acid sequences for entries named in this document (tags omitted). A change or cut given only in a name is not applied to a line headed by its entry.
UniProt Q9U2U0: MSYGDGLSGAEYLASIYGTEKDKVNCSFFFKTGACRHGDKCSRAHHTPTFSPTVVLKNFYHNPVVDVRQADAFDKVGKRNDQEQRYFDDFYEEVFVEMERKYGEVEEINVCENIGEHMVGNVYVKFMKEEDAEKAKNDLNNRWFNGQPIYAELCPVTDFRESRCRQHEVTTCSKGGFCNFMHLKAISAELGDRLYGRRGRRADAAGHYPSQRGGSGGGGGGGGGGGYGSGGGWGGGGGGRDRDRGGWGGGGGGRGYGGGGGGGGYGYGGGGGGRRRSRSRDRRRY

Tests used:
[1] = biological target: UAF-2::HA (C. elegans UAF-2, wild type) (C. elegans) (UniProt Q9U2U0); experiment: pull-down; lysate (NP-40 buffer) of HEK293T cells expressing UAF-2::HA incubated overnight at 4°C with purified His::UAF-1::FLAG and Protein A/G magnetic beads carrying anti-HA antibody; washed 5 times with 1 x PBST; western blot; only the binder purified
[2] = biological target: T1, His::UAF-1(T180I)::FLAG (C. elegans UAF-1 T180I) (C. elegans) (UniProt P90978); experiment: pull-down; lysate (NP-40 buffer) of HEK293T cells expressing UAF-2::HA incubated overnight at 4°C with purified His::UAF-1::FLAG and Protein A/G magnetic beads carrying anti-FLAG antibody; washed 5 times with 1 x PBST; western blot; only the target purified
T1 sequence: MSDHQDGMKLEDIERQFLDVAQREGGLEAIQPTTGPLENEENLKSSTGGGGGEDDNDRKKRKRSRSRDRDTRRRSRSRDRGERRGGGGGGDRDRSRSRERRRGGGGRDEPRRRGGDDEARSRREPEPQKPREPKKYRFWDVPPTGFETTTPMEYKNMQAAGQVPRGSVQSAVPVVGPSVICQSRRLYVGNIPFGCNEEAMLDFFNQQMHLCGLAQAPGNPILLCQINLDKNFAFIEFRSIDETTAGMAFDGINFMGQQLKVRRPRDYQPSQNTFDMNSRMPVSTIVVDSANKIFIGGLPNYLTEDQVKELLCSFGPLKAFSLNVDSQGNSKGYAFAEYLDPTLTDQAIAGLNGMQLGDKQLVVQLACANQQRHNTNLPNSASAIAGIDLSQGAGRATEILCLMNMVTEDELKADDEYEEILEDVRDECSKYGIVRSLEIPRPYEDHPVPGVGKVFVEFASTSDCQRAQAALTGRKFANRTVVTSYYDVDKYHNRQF

[3] = biological target: His::UAF-1::FLAG (C. elegans UAF-1, wild type) (C. elegans) (UniProt P90978); experiment: as above

## His::UAF-1::FLAG (C. elegans UAF-1, wild type) (from UniProt P90978-1 1-496)
[1]
  binding: binds

## UAF-2::HA (C. elegans UAF-2, wild type) (from UniProt Q9U2U0)
[2]
  binding: binds
[3]
  binding: binds
